The values that follow come from PMC11785928.

Chains of the proteins cited; added tags and fusions are not shown. Lines headed by an entry give the natural chain unless they say otherwise; changes in a name come on top.
UniProt Q96PU5: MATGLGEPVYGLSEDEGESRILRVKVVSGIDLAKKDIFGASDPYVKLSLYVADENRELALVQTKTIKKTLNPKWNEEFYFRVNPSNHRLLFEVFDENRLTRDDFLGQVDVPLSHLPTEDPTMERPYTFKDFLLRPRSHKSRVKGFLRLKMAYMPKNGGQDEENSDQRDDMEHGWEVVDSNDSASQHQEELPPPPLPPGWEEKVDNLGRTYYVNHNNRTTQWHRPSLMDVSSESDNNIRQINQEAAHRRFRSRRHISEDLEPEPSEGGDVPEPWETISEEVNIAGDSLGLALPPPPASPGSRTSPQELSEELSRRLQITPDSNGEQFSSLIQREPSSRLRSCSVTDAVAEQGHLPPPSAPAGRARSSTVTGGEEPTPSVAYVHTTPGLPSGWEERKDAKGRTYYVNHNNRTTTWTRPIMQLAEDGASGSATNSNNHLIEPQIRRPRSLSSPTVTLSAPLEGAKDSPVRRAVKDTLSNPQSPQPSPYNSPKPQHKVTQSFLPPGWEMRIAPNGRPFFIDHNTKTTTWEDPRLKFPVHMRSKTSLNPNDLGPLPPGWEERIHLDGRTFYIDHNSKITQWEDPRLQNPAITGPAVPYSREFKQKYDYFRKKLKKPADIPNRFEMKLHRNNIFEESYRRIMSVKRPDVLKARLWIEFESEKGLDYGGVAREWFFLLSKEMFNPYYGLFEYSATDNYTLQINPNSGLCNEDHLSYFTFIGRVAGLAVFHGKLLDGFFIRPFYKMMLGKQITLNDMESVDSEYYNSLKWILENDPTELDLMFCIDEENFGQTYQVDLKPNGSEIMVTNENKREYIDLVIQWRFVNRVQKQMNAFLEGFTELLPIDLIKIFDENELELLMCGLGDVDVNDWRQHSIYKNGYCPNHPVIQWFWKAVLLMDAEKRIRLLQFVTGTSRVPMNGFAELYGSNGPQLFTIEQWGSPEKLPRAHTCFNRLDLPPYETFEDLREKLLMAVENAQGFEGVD

These are yes or no findings as the source states them, for the method shown. In cells and extracts the contact can be indirect. Some results given as binding are weak or reduced against the parent protein; the word gives no strength.

Assay [1] addresses Myc-tagged NEDD4L (WT) (UniProt Q96PU5). The experiment in a line: co-IP; anti-Myc antibody, lysates of HEK293T cells cotransfected with Myc-tagged NEDD4L forms and FLAG-tagged SLC3A2.
Assay [2] concerns the target Myc-tagged NEDD4L-C942A (E3 ligase activity mutant) (UniProt Q96PU5). Described as above.

For the substance “FLAG-tagged SLC3A2 (from UniProt P08195 1-529)”, the binding entry is “binds” in assay [1] and “no binding” in assay [2].
